No constants are given. Whether binding was seen depends on the method and setting. Some binding calls cover weakened binding; strength is not graded here.
Columns and labels:
Test in all cases: urea ChIP-Western; formaldehyde-crosslinked thymocyte chromatin purified by 8 M urea ultracentrifugation and sonicated (~10 ug chromatin-DNA); immunoprecipitated with the indicated antibody on Protein-A beads, washed 6 times, reverse-crosslinked at 65 C; released proteins detected by western blot
[1] = biological target: T1, CCCTC-binding factor (CTCF) (mouse (endogenous in thymocytes)) (UniProt Q61164)
T1 sequence: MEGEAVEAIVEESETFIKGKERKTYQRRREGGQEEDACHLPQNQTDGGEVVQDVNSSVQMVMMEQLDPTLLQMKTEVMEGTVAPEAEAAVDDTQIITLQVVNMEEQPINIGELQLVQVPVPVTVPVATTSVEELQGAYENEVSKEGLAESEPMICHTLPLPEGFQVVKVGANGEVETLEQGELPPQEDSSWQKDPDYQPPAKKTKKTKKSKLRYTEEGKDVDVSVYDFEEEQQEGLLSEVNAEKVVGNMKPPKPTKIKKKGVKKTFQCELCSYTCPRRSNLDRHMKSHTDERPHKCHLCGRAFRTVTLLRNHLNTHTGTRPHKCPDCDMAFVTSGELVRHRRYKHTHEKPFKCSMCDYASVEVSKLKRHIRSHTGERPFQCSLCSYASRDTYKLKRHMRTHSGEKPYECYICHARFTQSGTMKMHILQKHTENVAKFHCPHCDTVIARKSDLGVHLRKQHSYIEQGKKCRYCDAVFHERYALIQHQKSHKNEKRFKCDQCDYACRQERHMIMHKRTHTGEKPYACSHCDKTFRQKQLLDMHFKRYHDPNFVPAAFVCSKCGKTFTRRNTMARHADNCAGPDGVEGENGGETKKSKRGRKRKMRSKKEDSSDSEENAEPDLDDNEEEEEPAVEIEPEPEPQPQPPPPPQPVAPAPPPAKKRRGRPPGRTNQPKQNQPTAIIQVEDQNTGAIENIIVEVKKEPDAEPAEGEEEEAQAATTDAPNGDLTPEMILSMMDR

[2] = biological target: T2, SATB1 (mouse (endogenous in thymocytes)) (UniProt Q60611)
T2 sequence: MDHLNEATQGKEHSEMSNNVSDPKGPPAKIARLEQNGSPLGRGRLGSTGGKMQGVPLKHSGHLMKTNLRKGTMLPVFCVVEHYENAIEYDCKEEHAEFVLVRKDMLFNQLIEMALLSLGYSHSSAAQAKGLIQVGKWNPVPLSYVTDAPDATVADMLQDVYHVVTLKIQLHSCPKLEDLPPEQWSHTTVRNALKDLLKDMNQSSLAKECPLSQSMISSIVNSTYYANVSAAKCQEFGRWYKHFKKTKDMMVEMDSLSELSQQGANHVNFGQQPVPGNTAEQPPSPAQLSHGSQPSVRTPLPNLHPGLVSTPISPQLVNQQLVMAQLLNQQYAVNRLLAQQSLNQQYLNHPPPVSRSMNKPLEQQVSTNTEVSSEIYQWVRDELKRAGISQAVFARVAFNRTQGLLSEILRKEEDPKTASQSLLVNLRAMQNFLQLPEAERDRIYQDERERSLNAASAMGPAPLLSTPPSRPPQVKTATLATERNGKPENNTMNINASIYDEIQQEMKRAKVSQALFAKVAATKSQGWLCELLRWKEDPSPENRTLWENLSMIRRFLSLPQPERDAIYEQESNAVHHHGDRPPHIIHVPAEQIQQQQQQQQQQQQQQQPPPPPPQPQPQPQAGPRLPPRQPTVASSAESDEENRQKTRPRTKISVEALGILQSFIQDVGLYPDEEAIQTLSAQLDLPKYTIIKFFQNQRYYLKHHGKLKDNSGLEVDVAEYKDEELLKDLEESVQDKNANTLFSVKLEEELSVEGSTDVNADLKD

[3] = biological target: T3, SATB1 (mouse (endogenous in thymocytes)), Q60611; settings: remark: other sources report otherwise
T3 chain: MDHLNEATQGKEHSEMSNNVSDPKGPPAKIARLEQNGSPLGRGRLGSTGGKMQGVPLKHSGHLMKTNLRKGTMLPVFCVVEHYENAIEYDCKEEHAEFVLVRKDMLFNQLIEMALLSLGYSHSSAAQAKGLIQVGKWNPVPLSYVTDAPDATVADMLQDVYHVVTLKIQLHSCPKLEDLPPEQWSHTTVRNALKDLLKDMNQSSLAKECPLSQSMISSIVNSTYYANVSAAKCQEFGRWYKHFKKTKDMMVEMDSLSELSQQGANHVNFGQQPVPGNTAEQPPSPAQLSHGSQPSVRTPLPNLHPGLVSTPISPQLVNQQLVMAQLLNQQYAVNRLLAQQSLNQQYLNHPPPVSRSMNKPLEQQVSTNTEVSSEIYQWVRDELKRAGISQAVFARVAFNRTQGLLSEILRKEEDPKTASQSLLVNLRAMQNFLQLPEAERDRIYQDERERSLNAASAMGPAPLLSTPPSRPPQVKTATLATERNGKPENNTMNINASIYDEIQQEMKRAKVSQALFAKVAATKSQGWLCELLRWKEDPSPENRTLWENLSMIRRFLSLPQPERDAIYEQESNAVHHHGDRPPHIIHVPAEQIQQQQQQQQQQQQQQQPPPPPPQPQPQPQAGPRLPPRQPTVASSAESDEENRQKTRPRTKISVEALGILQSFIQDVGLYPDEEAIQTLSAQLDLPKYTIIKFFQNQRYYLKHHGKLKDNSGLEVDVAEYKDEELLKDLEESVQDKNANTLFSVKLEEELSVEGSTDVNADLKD

[4] = biological target: T4, CCCTC-binding factor (CTCF) (mouse (endogenous in thymocytes)), Q61164; settings: remark: other sources report otherwise
T4 chain: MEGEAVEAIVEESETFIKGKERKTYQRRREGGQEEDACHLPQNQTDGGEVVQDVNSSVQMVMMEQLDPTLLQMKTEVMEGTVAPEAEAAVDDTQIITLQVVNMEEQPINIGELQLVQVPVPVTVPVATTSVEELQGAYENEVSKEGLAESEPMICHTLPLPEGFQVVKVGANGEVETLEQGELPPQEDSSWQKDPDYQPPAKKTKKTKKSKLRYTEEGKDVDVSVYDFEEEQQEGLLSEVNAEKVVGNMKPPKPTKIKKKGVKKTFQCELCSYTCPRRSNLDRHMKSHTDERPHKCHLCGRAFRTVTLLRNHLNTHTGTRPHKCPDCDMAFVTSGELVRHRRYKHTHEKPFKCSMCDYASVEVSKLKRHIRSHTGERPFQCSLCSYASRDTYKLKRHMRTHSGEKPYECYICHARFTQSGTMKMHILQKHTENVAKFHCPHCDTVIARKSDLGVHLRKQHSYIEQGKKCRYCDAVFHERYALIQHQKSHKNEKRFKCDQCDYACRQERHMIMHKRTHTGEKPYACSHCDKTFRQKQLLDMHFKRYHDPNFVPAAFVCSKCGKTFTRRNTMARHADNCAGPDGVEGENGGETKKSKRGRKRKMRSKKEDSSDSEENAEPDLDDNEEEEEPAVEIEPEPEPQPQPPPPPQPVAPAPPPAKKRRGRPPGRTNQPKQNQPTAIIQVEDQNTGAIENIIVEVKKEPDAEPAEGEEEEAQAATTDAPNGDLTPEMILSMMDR

B1: RAD21 (a cohesin complex component) (protein, UniProt Q61550 1-635)
chain: MFYAHFVLSKRGPLAKIWLAAHWDKKLTKAHVFECNLESSVESIISPKVKMALRTSGHLLLGVVRIYHRKAKYLLADCNEAFIKIKMAFRPGVVDLPEENREAAYNAITLPEEFHDFDQPLPDLDDIDVAQQFSLNQSRVEEITMREEVGNISILQENDFGDFGMDDREIMREGSAFEDDDMLVSTSASNLLLEPEQSTSNLNEKMNHLEYEDQYKDDNFGEGNDGGILDDKLISNNDGGIFDDPPALSEAGVMLPEQPAHDDMDEDDNGSLGGPDSPDSVDPVEPMPTMTDQTTLVPNEEEAFALEPIDITVKETKAKRKRKLIVDSVKELDSKTIRAQLSDYSDIVTTLDLAPPTKKLMMWKETGGVEKLFFLPAQPLWNNRLLKLFTRCLTPLVPEDLRKRRKGGEADNLDEFLKEFENPEVPREEQQPQQQQPQPQRDVIDEPIIEEPSRLQDSVMEASRTTIEESAMPPPPPQGVKRKAGQIDPEPSIPPQQVEQMEIPPVELPPEEPPNICQLIPELELLPEKEKEKEKEKEEEEEEEDEDASGGDQDQEERRWNKRTQQMLHGLQRALAKTGAESISLLELCRNTNRKQAAAKFYSFLVLKKQQAIELTQEEPYSDIIATPGPRFHII
binding [1]: binds weakly
binding [2]: no binding

B2: CCCTC-binding factor (CTCF), Q61164 1-736 (protein)
chain: MEGEAVEAIVEESETFIKGKERKTYQRRREGGQEEDACHLPQNQTDGGEVVQDVNSSVQMVMMEQLDPTLLQMKTEVMEGTVAPEAEAAVDDTQIITLQVVNMEEQPINIGELQLVQVPVPVTVPVATTSVEELQGAYENEVSKEGLAESEPMICHTLPLPEGFQVVKVGANGEVETLEQGELPPQEDSSWQKDPDYQPPAKKTKKTKKSKLRYTEEGKDVDVSVYDFEEEQQEGLLSEVNAEKVVGNMKPPKPTKIKKKGVKKTFQCELCSYTCPRRSNLDRHMKSHTDERPHKCHLCGRAFRTVTLLRNHLNTHTGTRPHKCPDCDMAFVTSGELVRHRRYKHTHEKPFKCSMCDYASVEVSKLKRHIRSHTGERPFQCSLCSYASRDTYKLKRHMRTHSGEKPYECYICHARFTQSGTMKMHILQKHTENVAKFHCPHCDTVIARKSDLGVHLRKQHSYIEQGKKCRYCDAVFHERYALIQHQKSHKNEKRFKCDQCDYACRQERHMIMHKRTHTGEKPYACSHCDKTFRQKQLLDMHFKRYHDPNFVPAAFVCSKCGKTFTRRNTMARHADNCAGPDGVEGENGGETKKSKRGRKRKMRSKKEDSSDSEENAEPDLDDNEEEEEPAVEIEPEPEPQPQPPPPPQPVAPAPPPAKKRRGRPPGRTNQPKQNQPTAIIQVEDQNTGAIENIIVEVKKEPDAEPAEGEEEEAQAATTDAPNGDLTPEMILSMMDR
binding [3]: no binding

B3: SATB1, Q60611 1-764 (protein)
chain: MDHLNEATQGKEHSEMSNNVSDPKGPPAKIARLEQNGSPLGRGRLGSTGGKMQGVPLKHSGHLMKTNLRKGTMLPVFCVVEHYENAIEYDCKEEHAEFVLVRKDMLFNQLIEMALLSLGYSHSSAAQAKGLIQVGKWNPVPLSYVTDAPDATVADMLQDVYHVVTLKIQLHSCPKLEDLPPEQWSHTTVRNALKDLLKDMNQSSLAKECPLSQSMISSIVNSTYYANVSAAKCQEFGRWYKHFKKTKDMMVEMDSLSELSQQGANHVNFGQQPVPGNTAEQPPSPAQLSHGSQPSVRTPLPNLHPGLVSTPISPQLVNQQLVMAQLLNQQYAVNRLLAQQSLNQQYLNHPPPVSRSMNKPLEQQVSTNTEVSSEIYQWVRDELKRAGISQAVFARVAFNRTQGLLSEILRKEEDPKTASQSLLVNLRAMQNFLQLPEAERDRIYQDERERSLNAASAMGPAPLLSTPPSRPPQVKTATLATERNGKPENNTMNINASIYDEIQQEMKRAKVSQALFAKVAATKSQGWLCELLRWKEDPSPENRTLWENLSMIRRFLSLPQPERDAIYEQESNAVHHHGDRPPHIIHVPAEQIQQQQQQQQQQQQQQQPPPPPPQPQPQPQAGPRLPPRQPTVASSAESDEENRQKTRPRTKISVEALGILQSFIQDVGLYPDEEAIQTLSAQLDLPKYTIIKFFQNQRYYLKHHGKLKDNSGLEVDVAEYKDEELLKDLEESVQDKNANTLFSVKLEEELSVEGSTDVNADLKD
binding [4]: no binding

— PMC12490858
